Laboratory results: patent US20140162952A1
No constants are given. Whether binding was seen depends on the method and setting. In cells and extracts the contact can be indirect. Some entries that bind do so weakly or less than the wild type.

Chains of the proteins cited; added tags and fusions are not shown. Lines headed by an entry give the natural chain unless they say otherwise; changes in a name come on top. Residues count along the entry.
UniProt Q99623: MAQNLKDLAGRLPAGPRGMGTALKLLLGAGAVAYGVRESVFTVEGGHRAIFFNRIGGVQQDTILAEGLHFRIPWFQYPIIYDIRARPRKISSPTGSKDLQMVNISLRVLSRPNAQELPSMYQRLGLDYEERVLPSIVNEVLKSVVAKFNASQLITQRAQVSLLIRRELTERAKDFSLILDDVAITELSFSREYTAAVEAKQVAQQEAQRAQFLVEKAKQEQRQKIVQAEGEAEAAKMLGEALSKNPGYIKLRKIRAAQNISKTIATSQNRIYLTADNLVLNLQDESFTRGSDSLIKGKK
UniProt P03372: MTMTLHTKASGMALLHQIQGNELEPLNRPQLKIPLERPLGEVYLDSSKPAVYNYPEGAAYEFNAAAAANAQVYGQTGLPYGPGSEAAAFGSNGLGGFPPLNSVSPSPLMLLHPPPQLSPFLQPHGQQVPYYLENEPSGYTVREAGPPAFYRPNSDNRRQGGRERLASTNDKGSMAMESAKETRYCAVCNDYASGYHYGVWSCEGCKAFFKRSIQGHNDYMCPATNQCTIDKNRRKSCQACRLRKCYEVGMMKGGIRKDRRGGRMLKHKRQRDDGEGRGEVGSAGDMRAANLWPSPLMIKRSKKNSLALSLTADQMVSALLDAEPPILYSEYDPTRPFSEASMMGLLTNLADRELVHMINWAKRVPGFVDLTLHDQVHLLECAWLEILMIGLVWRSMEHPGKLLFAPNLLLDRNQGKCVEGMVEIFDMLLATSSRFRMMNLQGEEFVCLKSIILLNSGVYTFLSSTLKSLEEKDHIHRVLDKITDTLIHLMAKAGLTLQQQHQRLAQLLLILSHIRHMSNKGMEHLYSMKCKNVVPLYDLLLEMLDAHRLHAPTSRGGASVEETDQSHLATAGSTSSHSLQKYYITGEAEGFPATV
UniProt Q5TH69: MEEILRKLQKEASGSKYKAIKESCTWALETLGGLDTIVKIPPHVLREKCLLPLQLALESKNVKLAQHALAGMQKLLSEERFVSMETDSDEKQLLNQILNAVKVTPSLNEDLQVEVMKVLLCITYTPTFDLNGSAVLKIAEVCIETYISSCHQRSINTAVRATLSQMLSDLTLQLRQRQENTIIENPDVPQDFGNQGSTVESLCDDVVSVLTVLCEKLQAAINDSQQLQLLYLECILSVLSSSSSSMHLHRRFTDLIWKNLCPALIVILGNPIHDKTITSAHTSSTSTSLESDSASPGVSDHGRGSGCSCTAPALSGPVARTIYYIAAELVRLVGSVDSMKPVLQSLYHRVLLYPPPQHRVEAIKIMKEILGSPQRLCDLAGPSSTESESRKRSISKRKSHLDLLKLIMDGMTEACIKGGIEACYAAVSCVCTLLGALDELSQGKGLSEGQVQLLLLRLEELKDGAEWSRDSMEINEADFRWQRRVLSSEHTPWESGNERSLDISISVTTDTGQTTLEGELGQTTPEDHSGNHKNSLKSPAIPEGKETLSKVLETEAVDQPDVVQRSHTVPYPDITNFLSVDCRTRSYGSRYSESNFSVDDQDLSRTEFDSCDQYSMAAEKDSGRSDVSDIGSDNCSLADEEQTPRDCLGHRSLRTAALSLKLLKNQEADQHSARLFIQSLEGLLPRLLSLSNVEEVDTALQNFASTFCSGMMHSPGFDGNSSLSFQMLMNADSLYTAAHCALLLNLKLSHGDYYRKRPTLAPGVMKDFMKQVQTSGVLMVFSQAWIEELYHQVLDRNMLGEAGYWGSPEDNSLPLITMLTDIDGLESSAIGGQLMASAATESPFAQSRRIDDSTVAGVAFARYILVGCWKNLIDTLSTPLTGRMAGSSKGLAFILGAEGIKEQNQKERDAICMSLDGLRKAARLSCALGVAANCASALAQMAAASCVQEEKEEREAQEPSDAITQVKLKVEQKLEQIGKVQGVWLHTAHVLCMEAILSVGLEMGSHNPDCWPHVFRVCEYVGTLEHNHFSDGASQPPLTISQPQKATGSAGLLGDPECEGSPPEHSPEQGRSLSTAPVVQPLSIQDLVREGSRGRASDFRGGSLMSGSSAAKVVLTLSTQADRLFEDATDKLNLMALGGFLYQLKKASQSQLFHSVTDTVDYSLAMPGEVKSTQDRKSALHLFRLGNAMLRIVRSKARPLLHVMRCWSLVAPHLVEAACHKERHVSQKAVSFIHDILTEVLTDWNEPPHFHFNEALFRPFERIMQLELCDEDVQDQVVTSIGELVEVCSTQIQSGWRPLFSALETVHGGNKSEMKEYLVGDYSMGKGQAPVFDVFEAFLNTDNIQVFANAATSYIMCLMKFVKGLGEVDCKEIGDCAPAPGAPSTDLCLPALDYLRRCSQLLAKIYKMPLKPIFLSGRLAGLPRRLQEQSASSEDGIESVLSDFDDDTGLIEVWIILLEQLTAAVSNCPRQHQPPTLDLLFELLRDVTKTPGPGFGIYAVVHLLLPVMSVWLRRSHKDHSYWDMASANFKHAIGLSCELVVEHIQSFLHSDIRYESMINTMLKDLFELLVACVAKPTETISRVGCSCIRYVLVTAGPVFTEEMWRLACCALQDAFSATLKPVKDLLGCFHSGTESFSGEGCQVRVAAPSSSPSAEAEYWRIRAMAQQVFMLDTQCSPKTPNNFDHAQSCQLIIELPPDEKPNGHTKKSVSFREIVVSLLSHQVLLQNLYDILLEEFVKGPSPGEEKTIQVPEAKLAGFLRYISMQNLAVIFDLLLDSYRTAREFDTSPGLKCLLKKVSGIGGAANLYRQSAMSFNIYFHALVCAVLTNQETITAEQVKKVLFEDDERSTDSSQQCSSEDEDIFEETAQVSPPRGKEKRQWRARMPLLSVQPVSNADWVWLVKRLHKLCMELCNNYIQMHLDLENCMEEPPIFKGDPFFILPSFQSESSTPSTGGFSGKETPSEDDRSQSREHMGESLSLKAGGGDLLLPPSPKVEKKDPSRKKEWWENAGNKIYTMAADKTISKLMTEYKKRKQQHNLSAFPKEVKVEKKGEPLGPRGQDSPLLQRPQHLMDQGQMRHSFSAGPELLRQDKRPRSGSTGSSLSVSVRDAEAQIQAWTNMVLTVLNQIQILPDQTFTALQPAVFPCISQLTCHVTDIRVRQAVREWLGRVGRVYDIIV
UniProt P27986, residues 2-724: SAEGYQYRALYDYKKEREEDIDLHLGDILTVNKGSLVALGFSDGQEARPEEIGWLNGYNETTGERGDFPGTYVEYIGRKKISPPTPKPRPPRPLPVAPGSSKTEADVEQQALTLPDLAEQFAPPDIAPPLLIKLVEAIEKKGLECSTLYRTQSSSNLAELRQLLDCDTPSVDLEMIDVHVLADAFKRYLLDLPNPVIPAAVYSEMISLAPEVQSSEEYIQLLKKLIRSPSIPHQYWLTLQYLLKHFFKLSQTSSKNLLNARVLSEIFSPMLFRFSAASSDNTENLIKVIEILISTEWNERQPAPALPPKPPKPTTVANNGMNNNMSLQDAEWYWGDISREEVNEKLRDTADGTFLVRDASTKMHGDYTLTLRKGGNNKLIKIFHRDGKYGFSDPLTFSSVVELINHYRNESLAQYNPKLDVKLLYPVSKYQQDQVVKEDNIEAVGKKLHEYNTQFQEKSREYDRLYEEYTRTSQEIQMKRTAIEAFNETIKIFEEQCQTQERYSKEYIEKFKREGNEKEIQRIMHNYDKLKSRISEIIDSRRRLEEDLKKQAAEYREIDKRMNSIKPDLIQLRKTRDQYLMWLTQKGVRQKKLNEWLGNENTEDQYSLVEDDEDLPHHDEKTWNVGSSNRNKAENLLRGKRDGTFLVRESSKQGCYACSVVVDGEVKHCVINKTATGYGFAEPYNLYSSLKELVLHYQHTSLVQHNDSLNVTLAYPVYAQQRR

Legend:
[1] = target: 6×His-tagged recombinant PHB2/REA protein (human) (UniProt Q99623); test: Ni-resin pull-down of 10 µg His-PHB2 mixed with lysate of Flag-tagged ERAP1 expressing cells and HA-peptide; blot for ERAP1
[2] = target: estrogen receptor α (ERα) (human) (UniProt P03372); test: anti-ERα co-IP from KPL-3C cells, 24 h, 10 nM E2 and/or 10 µM Peptide
[3] = target: estrogen receptor α (ERα) (human) (UniProt P03372); test: co-IP from the cytoplasm fraction of MCF-7 cells, 24 h, 10 nM E2 and/or 10 µM Peptide
[4] = target: estrogen receptor α (ERα) (human) (UniProt P03372); test: anti-ERα co-IP from the cytoplasm fraction of BT-474 cells, 24 h, 10 nM E2 and/or 10 µM Peptide

Flag-full-length ERAP1 (from UniProt Q5TH69 1-2177)
binding [1]: binds

PI3K (from UniProt P27986 2-724) (enzyme)
binding [2]: binds | binding [3]: binds | binding [4]: binds
